Experimental data: PubChem BioAssay AID602196 (INSERM, 2012)
The deposit covers about 23,000 reagents; this is a random part of them. 455 of all reagents (2%) were called active. 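Active includes both protection and sensitisation; some change values fall well beyond the stated -50 to +50 range.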 A number with no mark means an inactive call. Further read-outs or replicates are left out here. No sequences are given here. Not stated in the record: the amount of reagent.

- Test: 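Knock-downs that protect lung cancer cells from cisplatin or sensitise them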
- System: human A549 lung cancer cells
- Reagent: siRNA pair against human genes
- Time to read-out: 48 h transfection before cisplatin; time from cisplatin to read-out not stated
- Treatment: cisplatin at a dose killing half of control-siRNA cells; exact dose and duration not given
- Measured: 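Cisplatin cell death as a shift from the 50% death seen with control siRNA; siRNAs toxic or growth-blocking alone scored 0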
- Reading the numbers: two-siRNA summed score (-2 to +2): higher = both siRNAs protect from cisplatin killing; -2 means both sensitise
- Call rule: 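Each siRNA scores 0 if harmful alone by LDH or WST-1, otherwise +1 if it reduces and -1 if it increases cisplatin killing; a gene is active when both siRNAs agree (sum +2 or -2)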
- Meaning of the calls: active = both siRNAs shift cisplatin killing the same way; inactive = no consistent shift, or siRNA harmful alone

no.	gene	two-siRNA summed score (-2 to +2)
1	XRCC6 (X-ray repair cross complementing 6)	1
2	NDUFB5 (NADH:ubiquinone oxidoreductase subunit B5)	-1
3	MVB12A (multivesicular body subunit 12A)	1
4	TMED4 (transmembrane p24 trafficking protein 4)	-1
5	RBM22 (RNA binding motif protein 22)	0
6	LOC440864 (retired record)	1
7	DMPK (DM1 protein kinase)	-1
8	RASGRF1 (Ras protein specific guanine nucleotide releasing factor 1)	0
9	ACSF2 (acyl-CoA synthetase family member 2)	0
10	KIAA0753	2 (active)
11	TAF4B (TATA-box binding protein associated factor 4b)	1
12	ANKRD40CL (ANKRD40 C-terminal like)	0
13	PLA2G6 (phospholipase A2 group VI)	0
14	KRTAP5-11 (keratin associated protein 5-11)	0
15	POTEH (POTE ankyrin domain family member H)	0
16	H2BC14 (H2B clustered histone 14)	0
17	RAB29 (RAB29, member RAS oncogene family)	0
18	LOC285721	1
19	CLEC12B (C-type lectin domain family 12 member B)	0
20	LEPROT (leptin receptor overlapping transcript)	-1
21	LOC401015	1
22	LOC442250	0
23	SORBS3 (sorbin and SH3 domain containing 3)	0
24	LOC390598	0
25	PGM1 (phosphoglucomutase 1)	0
26	FAM131C (family with sequence similarity 131 member C)	0
27	FLJ46230	0
28	SNX6 (sorting nexin 6)	0
29	HOXA6 (homeobox A6)	0
30	ZBTB48 (zinc finger and BTB domain containing 48)	1
31	SRP9 (signal recognition particle 9)	1
32	LOC441555	0
33	PHC3 (polyhomeotic homolog 3)	0
34	LOC440726	1
35	KRTAP19-3 (keratin associated protein 19-3)	1
36	C1QL1 (complement C1q like 1)	0
37	PLEKHA5 (pleckstrin homology domain containing A5)	-1
38	MARCKSL1 (MARCKS like 1)	-1
39	PRRG3 (proline rich and Gla domain 3)	0

Entries above whose target name starts with T or t:
gene	two-siRNA summed score (-2 to +2)
TMED4 (transmembrane p24 trafficking protein 4)	-1
TAF4B (TATA-box binding protein associated factor 4b)	1
